# Measurements published in paper PMC3017090.
# Protein sequences, listed by entry. Tags and fused reporters are not part of them.
# UniProt P25490: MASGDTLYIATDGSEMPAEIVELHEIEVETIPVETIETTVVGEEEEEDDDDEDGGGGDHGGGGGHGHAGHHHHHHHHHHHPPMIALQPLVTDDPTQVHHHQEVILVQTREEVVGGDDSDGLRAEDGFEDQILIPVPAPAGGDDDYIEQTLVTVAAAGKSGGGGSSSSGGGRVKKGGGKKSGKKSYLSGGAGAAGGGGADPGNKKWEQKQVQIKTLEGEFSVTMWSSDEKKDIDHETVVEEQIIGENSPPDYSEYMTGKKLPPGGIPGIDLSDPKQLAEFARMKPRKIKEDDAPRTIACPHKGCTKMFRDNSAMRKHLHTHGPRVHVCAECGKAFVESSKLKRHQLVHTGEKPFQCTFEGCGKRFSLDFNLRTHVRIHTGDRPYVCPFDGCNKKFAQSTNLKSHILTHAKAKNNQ
# UniProt P53350: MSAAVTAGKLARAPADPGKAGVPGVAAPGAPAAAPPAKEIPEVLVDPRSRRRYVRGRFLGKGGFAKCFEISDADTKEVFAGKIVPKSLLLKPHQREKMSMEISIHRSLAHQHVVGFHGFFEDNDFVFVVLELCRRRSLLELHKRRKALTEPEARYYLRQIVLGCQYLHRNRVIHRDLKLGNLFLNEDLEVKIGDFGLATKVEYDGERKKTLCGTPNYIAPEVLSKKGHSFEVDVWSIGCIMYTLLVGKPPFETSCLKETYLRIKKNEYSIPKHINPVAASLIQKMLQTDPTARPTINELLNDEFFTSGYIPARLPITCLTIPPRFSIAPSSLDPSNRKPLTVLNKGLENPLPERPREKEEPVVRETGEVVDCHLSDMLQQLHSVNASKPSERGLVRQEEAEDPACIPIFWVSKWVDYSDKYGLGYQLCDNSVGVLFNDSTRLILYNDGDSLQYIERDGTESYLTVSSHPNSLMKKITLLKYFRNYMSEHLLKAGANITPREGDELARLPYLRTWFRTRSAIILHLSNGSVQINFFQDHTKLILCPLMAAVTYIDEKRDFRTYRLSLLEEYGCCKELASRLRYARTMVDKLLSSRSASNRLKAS
# No constants are given. Whether binding was seen depends on the method and setting. In cells and extracts the contact can be indirect. Some binding calls cover weakened binding; strength is not graded here.
# Target: Yin-Yang 1 (human (endogenous in HeLa)) (UniProt P25490)
# Experiment: co-IP; endogenous YY1 immunoprecipitated with anti-YY1 (C-20) from whole cell extracts of HeLa cells released 8 h after double-thymidine block (G2/M); IgG as control; blot probed with anti-Plk1, then anti-YY1
substance,measurement,value
Polo-like kinase 1 (from UniProt P53350 1-603) (enzyme),binding,binds
